At least one structure is not confirmed: it was looked up by name or label, or the drawing left a doubt.
Test system: ERα
Assay: ERα ChIP-seq (ERα/chromatin interactions) in ZR-75-1 cells
Assay type: cell-based, human
Conditions: control ZR-75-1 cells (pRS-GFP), hormone depleted 72 hours, ligand for 48 hours

C[C@]12CC[C@@H]3c4ccc(O)cc4CC[C@H]3[C@@H]1CC[C@@H]2O [estradiol]
ERα/chromatin interactions: greatly enhanced
